This note sets out measurements from the supplement of paper PMC12819154, “High-throughput peptide-centric local stability assay extends protein–ligand identification to membrane proteins, tissues and bacteria” (Nature Structural & Molecular Biology, 2025).

Protein sequences, listed by entry. Tags and fused reporters are not part of them. Lines headed by an entry give the natural chain unless they say otherwise; changes in a name come on top.
UniProt Q9EQQ9: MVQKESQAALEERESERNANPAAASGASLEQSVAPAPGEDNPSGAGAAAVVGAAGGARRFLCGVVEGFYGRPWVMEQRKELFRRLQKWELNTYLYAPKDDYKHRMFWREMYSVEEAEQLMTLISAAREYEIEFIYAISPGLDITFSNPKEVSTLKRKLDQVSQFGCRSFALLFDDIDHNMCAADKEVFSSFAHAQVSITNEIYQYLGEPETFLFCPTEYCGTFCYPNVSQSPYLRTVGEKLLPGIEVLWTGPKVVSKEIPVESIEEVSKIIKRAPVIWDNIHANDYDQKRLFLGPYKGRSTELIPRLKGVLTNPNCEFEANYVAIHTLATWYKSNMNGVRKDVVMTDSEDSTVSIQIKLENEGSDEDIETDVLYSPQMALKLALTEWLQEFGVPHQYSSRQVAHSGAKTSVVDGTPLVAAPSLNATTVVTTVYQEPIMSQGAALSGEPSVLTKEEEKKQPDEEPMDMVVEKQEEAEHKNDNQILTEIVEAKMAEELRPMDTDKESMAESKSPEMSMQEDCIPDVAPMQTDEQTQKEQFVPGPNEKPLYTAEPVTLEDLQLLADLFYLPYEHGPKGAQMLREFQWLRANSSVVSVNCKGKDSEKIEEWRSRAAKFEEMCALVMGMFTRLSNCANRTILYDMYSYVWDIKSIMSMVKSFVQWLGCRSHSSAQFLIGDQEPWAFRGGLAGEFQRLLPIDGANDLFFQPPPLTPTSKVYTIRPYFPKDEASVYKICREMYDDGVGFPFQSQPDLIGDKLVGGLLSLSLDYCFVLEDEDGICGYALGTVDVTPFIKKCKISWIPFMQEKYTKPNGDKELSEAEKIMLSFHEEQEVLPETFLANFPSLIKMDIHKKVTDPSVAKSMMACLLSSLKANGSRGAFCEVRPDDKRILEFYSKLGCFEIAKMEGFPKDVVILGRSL
UniProt Q9EPS3: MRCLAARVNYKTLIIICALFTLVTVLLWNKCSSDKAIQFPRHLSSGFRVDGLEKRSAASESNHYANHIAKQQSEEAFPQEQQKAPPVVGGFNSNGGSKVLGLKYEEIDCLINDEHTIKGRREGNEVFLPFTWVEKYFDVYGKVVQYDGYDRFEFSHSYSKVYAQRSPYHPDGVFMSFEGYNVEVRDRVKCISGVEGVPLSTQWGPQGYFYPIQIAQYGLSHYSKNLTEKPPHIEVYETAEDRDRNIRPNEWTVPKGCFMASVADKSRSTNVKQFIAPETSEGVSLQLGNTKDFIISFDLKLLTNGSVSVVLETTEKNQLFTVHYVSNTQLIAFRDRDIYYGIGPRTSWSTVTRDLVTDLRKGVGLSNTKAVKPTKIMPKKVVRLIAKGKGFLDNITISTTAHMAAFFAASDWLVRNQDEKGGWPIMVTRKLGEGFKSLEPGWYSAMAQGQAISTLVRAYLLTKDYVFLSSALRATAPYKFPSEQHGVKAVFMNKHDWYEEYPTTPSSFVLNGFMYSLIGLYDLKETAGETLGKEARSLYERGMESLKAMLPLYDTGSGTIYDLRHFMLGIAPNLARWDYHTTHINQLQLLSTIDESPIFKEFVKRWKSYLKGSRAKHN
UniProt Q9DD20: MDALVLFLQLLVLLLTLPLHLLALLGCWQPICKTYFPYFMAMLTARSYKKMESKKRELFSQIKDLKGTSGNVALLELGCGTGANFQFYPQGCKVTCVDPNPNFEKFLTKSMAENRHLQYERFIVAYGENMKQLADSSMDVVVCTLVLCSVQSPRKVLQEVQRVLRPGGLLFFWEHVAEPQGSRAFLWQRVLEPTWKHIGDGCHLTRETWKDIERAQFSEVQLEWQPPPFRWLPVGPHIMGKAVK
UniProt Q9DBC7, whole entry: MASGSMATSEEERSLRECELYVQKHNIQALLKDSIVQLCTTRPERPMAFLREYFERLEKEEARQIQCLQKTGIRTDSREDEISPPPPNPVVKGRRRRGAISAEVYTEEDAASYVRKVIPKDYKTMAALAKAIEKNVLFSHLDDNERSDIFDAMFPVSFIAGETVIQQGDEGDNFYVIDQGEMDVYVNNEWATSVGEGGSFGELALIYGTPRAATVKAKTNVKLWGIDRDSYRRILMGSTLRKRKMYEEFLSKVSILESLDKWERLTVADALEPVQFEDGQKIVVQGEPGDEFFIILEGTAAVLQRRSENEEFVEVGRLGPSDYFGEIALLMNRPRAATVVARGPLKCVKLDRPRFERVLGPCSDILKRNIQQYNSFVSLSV
UniProt Q9DC51, whole entry: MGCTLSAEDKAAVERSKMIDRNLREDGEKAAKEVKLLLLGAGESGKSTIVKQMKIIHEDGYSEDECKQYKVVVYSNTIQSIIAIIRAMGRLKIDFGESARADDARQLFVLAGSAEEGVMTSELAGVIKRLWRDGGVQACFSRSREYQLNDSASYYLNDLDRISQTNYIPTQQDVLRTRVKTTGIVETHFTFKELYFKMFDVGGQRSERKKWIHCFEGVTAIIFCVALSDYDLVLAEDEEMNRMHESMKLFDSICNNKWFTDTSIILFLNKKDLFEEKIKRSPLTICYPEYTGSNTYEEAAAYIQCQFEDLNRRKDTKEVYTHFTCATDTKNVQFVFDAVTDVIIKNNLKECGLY
UniProt Q9DCC8, whole entry: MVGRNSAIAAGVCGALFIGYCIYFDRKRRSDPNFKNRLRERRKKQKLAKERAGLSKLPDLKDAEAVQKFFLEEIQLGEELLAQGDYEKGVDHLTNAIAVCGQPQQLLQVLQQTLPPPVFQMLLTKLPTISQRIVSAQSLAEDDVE
UniProt Q9DBB1: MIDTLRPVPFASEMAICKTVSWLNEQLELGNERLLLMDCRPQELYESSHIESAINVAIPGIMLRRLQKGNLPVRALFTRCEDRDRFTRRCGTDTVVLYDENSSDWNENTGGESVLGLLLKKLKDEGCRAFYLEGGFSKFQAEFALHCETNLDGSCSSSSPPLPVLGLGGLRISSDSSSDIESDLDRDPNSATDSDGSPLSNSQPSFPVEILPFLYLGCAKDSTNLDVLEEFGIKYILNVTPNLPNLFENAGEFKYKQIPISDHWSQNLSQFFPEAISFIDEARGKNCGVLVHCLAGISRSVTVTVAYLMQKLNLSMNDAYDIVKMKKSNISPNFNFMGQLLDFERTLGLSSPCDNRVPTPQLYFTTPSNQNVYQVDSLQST
UniProt Q9EP82: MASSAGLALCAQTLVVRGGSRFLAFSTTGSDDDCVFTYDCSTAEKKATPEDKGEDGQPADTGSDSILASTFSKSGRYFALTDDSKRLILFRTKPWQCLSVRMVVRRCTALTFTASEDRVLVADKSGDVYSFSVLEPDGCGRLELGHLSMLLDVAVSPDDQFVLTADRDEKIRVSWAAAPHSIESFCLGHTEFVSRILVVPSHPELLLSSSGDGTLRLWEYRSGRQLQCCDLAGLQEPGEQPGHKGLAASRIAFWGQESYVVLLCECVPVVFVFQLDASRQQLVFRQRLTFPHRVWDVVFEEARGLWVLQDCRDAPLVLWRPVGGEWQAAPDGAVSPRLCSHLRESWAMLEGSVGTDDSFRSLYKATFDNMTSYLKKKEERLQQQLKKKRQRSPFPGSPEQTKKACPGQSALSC
UniProt Q9ERG2: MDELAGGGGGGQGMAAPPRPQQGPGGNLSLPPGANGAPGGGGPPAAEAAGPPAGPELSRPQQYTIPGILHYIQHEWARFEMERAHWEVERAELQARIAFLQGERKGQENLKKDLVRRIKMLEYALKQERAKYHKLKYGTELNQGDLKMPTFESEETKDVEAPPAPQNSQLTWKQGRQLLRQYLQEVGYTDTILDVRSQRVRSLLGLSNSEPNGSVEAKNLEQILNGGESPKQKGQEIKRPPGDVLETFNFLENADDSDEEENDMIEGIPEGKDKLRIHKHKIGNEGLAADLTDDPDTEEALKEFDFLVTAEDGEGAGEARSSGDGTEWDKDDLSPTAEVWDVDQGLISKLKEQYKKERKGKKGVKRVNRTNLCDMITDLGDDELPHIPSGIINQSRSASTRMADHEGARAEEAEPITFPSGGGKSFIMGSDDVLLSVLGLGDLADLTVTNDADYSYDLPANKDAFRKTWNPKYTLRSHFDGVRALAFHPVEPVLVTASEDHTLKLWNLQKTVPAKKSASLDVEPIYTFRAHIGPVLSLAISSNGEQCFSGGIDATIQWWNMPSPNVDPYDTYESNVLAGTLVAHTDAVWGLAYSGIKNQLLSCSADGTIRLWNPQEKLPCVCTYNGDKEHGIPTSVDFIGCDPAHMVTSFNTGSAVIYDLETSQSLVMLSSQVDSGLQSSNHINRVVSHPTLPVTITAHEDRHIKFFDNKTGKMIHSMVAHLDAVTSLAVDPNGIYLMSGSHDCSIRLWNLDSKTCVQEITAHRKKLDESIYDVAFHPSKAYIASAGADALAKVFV

The other results are listed elsewhere or left out. Most values lie at the level of the controls, where differences are scatter.

Compound in this experiment: CN[C@@H]1C[C@H]2O[C@@](C)([C@@H]1OC)n1c3ccccc3c3c4c(c5c6ccccc6n2c5c31)C(=O)NC4 [staurosporine]
Put plainly: log2 fold change of tryptic peptide abundance, ligand vs vehicle (limited proteolysis) (log2 ratio); higher = more trypsin-susceptible (destabilized). The note with it: ligand concentration: 20 uM; sample: mouse liver crude lysate; replicate design: treated separately.
As to “UniProt Q9EQQ9 (peptide sequence: KVTDPSVAK, peptide start residue: 850)”, the log2 fold change was -0.653.

Turning to “UniProt Q9EPS3 (peptide sequence: SAASESNHYANHIAK, peptide start residue: 56)”, the log2 fold change turned out to be 0.162.

For the target “UniProt Q9DD20 (peptide sequence: VTCVDPNPNFEKFLTK, peptide start residue: 94)”, the log2 fold change stood at 0.37.

As for “UniProt Q9DBC7 (peptide sequence: VSILESLDKWER, peptide start residue: 253)”, the log2 fold change came to 0.163.

For the target “UniProt Q9DC51 (peptide sequence: IDFGESAR, peptide start residue: 93)”, the log2 fold change is -0.204.

With “UniProt Q9DCC8 (peptide sequence: AGLSKLPDLK, peptide start residue: 52)”, the log2 fold change was 0.0928.

As for “UniProt Q9DBB1 (peptide sequence: NCGVLVHCLAGISR, peptide start residue: 286)”, the log2 fold change was 0.598.

With “UniProt Q9EP82 (peptide sequence: KACPGQSALSC, peptide start residue: 403)”, the log2 fold change was determined as 0.353.

As for “UniProt Q9ERG2 (peptide sequence: LKYGTELNQGDLK, peptide start residue: 135)”, the log2 fold change is -0.21.
